This is one part of the list.
Columns and labels:
Assay in all cases: log2 fold change, soluble protein after heating vs DMSO (PISA); higher = thermal stabilisation; K562 lysate, 10 uM; active = over 0.2 and 3.5 SD of the protein, either way, in both replicates (recomputed)
nilotinib = compound: Cc1cn(-c2cc(NC(=O)c3ccc(C)c(Nc4nccc(-c5cccnc5)n4)c3)cc(C(F)(F)F)c2)cn1 [nilotinib]
Summary of the method: (§1)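 A 30 min treatment with 10 μM compound was applied to crude K562 extract at 1 mg/mL protein in PBS pH 7.4 with 1 mM MgCl2. Heating for 3 min spanned 48°C-58°C, after which aliquots were pooled, adjusted to 0.5% NP-40 at 4°C and spun at 21,000xg for 90 min. TMTpro 16plex LC-MS/MS of the supernatant, with channel sums equalised, gave values recorded as log-two fold change in thermal stability against solvent controls, from duplicates.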

By UniProt entry, the sequences of proteins in these tests, tags left out. Where a name states a change or a piece, a line headed by the entry shows the natural chain unless it says otherwise.
UniProt Q96HS1, whole entry, looked up: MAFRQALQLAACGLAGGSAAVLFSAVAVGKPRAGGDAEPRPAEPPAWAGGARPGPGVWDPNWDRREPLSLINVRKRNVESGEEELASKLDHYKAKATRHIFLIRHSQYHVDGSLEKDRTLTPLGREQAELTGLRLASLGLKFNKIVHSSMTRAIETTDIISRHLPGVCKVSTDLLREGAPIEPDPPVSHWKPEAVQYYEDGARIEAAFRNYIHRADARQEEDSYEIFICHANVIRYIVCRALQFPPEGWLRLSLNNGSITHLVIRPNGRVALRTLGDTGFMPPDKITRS
UniProt Q9HBI1: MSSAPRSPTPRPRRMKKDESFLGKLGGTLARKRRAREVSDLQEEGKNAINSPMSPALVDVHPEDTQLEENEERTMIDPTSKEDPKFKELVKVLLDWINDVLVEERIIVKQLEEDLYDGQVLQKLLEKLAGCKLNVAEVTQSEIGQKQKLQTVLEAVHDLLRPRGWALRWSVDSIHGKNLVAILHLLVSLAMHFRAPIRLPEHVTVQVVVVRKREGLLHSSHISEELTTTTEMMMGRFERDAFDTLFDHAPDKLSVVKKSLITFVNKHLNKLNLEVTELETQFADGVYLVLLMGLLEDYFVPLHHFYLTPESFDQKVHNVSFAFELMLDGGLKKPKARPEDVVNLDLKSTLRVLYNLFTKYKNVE
UniProt Q53EL6: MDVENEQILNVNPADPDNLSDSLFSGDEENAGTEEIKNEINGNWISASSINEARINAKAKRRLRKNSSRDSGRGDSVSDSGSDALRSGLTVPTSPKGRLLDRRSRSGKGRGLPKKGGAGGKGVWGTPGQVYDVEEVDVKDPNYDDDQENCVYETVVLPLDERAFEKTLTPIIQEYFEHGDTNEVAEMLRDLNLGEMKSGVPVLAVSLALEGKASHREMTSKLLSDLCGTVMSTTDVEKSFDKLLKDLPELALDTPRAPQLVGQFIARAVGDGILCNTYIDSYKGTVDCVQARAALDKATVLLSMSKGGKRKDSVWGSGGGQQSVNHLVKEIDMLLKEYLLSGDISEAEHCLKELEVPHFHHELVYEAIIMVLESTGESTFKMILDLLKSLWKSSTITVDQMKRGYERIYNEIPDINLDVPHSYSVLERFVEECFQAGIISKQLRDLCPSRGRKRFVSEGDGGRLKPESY
UniProt Q6ZW49, whole entry, looked up: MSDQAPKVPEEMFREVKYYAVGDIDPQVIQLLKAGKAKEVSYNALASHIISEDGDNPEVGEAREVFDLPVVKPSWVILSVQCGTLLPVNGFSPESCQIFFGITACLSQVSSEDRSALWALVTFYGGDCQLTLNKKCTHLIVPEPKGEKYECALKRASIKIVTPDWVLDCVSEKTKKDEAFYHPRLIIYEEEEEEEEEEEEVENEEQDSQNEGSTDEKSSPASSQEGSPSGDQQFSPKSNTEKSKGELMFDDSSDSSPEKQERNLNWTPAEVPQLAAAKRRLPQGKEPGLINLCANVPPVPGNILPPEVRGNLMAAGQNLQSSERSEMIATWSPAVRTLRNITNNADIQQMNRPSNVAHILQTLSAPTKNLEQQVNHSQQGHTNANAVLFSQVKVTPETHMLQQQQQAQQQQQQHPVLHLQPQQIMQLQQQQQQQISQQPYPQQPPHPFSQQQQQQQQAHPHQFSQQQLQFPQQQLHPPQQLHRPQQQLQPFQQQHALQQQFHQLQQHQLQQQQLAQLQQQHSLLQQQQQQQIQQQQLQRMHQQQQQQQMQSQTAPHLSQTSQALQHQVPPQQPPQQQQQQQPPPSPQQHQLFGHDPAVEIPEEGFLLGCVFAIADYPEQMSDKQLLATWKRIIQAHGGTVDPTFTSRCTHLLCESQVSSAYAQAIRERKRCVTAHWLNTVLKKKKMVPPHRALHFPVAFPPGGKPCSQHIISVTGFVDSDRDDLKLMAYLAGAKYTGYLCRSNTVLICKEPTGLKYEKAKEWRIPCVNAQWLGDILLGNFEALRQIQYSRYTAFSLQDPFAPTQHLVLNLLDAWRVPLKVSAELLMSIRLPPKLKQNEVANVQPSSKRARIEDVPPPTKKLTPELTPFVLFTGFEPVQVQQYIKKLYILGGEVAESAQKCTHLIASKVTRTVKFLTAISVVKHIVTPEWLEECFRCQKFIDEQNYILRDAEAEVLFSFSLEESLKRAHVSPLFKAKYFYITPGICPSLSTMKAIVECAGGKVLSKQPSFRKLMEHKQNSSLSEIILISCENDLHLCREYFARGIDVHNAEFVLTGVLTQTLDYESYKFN
UniProt Q9NR12, whole entry, looked up: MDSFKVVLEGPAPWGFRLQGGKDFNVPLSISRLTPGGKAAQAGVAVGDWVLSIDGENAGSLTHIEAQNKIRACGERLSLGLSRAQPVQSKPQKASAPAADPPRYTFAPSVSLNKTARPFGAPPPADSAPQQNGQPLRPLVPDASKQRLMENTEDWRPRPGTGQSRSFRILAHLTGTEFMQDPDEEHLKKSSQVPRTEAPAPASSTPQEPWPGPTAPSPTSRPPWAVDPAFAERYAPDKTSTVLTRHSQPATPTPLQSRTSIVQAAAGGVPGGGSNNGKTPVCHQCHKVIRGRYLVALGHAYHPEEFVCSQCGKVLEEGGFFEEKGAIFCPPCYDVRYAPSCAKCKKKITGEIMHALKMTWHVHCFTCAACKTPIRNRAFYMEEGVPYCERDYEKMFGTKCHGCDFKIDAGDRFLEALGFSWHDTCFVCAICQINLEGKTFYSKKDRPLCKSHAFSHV
UniProt Q96AQ6: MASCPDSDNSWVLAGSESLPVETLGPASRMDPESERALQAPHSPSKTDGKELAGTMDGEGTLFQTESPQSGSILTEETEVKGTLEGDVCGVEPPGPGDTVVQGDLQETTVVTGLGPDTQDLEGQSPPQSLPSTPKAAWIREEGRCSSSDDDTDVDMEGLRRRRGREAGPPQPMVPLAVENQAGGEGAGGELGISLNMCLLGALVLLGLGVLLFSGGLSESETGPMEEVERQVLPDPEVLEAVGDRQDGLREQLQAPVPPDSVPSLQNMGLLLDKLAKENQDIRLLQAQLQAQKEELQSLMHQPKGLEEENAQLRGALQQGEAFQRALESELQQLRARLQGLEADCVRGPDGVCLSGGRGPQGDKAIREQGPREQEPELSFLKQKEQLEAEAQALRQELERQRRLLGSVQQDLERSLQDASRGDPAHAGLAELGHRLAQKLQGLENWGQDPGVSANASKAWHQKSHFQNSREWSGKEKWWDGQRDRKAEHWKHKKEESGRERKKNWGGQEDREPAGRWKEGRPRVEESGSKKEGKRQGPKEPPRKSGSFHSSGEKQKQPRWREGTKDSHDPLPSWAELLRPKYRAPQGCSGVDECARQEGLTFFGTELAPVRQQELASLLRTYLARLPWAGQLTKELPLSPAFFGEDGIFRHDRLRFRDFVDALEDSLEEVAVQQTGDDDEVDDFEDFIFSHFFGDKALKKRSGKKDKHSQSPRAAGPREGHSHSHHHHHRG
UniProt Q9BYE7: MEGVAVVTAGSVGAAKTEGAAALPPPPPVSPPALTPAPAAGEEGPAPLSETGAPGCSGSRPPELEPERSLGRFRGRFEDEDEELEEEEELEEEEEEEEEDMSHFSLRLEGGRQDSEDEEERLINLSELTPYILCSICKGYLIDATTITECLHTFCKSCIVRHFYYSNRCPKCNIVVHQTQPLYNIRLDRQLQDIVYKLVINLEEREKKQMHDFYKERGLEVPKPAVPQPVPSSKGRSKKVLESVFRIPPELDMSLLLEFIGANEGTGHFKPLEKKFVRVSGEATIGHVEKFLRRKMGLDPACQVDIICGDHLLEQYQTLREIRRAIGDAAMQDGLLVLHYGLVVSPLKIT
UniProt O96011: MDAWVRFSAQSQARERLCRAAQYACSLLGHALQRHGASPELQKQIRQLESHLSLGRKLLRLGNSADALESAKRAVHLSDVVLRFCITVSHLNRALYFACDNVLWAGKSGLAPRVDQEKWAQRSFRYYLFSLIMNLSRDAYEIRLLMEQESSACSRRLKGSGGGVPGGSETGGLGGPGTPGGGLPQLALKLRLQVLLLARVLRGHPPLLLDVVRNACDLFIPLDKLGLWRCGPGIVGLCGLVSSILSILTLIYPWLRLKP
UniProt Q96KB5: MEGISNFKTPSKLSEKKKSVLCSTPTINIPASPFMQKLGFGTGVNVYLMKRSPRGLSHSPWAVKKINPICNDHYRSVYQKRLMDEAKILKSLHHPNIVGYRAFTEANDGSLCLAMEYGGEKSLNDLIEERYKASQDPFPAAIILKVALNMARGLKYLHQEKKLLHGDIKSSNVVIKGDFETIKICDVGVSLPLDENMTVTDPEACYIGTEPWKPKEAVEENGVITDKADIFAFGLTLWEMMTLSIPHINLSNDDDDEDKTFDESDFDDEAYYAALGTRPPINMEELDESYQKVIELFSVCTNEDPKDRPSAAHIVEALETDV
UniProt P28328: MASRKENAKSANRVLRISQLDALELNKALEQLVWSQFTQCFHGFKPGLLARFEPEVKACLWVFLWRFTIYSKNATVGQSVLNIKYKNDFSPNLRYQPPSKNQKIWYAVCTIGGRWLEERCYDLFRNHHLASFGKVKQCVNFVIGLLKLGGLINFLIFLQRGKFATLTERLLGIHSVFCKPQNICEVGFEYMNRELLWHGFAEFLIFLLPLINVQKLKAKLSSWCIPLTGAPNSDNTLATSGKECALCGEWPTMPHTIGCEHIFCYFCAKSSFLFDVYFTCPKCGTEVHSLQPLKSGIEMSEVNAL
UniProt P40855: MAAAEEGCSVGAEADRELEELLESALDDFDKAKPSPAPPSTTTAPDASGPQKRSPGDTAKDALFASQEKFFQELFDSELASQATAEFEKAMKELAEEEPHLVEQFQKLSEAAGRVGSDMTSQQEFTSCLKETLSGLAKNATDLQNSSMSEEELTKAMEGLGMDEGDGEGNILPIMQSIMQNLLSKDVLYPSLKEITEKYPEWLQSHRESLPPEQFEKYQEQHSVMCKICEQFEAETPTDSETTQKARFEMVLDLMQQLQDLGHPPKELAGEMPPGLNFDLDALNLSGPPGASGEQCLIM
UniProt O75340: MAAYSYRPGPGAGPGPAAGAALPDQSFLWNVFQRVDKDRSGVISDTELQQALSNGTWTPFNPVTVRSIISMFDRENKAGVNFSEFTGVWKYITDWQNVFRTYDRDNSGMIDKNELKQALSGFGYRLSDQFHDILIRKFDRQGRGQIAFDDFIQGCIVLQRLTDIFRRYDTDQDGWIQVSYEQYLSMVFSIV
UniProt Q15365, whole entry, looked up: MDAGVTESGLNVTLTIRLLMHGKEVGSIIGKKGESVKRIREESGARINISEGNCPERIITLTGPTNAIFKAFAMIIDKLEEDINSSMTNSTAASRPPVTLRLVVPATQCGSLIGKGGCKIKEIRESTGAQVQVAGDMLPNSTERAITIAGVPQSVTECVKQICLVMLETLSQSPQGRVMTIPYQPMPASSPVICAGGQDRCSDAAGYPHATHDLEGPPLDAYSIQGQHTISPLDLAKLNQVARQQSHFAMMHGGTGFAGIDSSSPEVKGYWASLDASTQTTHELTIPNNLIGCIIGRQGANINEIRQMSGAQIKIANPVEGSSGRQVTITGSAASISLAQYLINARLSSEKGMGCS
UniProt Q13371: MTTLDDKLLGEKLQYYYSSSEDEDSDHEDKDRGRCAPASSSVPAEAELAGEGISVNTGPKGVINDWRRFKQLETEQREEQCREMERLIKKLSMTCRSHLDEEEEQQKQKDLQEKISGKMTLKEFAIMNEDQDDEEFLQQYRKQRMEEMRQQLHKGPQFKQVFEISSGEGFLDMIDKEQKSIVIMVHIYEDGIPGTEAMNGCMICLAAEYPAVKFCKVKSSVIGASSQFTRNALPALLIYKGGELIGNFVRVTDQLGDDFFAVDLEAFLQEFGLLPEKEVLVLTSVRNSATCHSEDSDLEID
UniProt Q9Y5K3: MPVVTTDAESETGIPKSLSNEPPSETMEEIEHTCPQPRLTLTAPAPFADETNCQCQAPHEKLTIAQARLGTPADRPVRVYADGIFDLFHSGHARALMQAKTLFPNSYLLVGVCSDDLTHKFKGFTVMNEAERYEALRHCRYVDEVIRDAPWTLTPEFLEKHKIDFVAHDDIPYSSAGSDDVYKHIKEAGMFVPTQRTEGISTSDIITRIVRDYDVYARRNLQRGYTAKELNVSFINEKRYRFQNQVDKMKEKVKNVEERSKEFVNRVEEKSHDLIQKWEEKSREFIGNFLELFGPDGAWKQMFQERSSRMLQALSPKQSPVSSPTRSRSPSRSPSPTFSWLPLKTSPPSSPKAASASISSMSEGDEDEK
UniProt Q8WW12: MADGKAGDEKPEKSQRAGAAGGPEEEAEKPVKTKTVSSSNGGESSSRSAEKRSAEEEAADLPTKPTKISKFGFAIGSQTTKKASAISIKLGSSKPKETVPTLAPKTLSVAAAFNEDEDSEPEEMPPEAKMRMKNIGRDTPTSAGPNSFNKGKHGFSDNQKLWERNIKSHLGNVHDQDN

[1] = compound: Cc1nc(Nc2n[nH]c3c2CN(C(=O)N[C@H](CN(C)C)c2ccccc2)C3(C)C)c2sccc2n1
Summary of the method: as §1

dasatinib = compound: Cc1nc(Nc2ncc(C(=O)Nc3c(C)cccc3Cl)s2)cc(N2CCN(CCO)CC2)n1 [dasatinib]
Summary of the method: as §1

[2] = compound: Cc1ncc(-c2ccnc(Nc3ccc(S(C)(=O)=O)cc3)n2)n1C(C)C
Summary of the method: as §1

[3] = compound: Cn1cc(-c2ccc3c(c2)CCN3C(=O)Cc2cccc(C(F)(F)F)c2)c2c(N)ncnc21
Summary of the method: as §1

quisinostat = compound: Cn1cc(CNCC2CCN(c3ncc(C(=O)NO)cn3)CC2)c2ccccc21 [quisinostat]
Summary of the method: as §1

tipifarnib = compound: Cn1cncc1[C@@](N)(c1ccc(Cl)cc1)c1ccc2c(c1)c(-c1cccc(Cl)c1)cc(=O)n2C [tipifarnib]
Summary of the method: as §1

[4] = compound: NC(=O)Nc1cc(-c2cccc(F)c2)sc1C(=O)N[C@H]1CCCNC1
Summary of the method: as §1

[5] = compound: NC(=O)c1cnc(N[C@@H]2CCCC[C@@H]2N)nc1Nc1cccc(-n2nccn2)c1
Summary of the method: as §1

[6] = compound: NC1(c2ccc(-c3nc4ccn5c(=O)[nH]nc5c4cc3-c3ccccc3)cc2)CCC1
Summary of the method: as §1

[7] = compound: NCC(=O)Nc1ccc(-n2nc(C(F)(F)F)cc2-c2ccc3c(ccc4ccccc43)c2)cc1
Summary of the method: as §1

vorinostat = compound: O=C(CCCCCCC(=O)Nc1ccccc1)NO [vorinostat]
Summary of the method: as §1

silmitasertib = compound: O=C(O)c1ccc2c(c1)nc(Nc1cccc(Cl)c1)c1ccncc12 [silmitasertib]
Summary of the method: as §1

[8] = compound: O=C1NC(=O)C(c2cnc3ccccn23)=C1c1cn2c3c(cc(F)cc13)CN(C(=O)N1CCCCC1)CC2
Summary of the method: as §1

entospletinib = compound: c1cn2cc(-c3ccc4cn[nH]c4c3)nc(Nc3ccc(N4CCOCC4)cc3)c2n1 [entospletinib]
Summary of the method: as §1

Measured: log2 fold change

PGAM5 (UniProt Q96HS1)
inactive: nilotinib -0.009 | [1] 0.041 | dasatinib -0.008 | [2] -0.004 | [3] -0.005 | quisinostat -0.012 | tipifarnib -0.012 | [4] 0.015 | [5] 0.013 | [6] 0.015 | [7] -0.013 | vorinostat -0.008 | silmitasertib -0.008 | [8] -0.035 | entospletinib 0.005

PARVB (UniProt Q9HBI1)
inactive: nilotinib -0.02 | [1] -0.017 | dasatinib -0.017 | [2] 0.043 | [3] -0.001 | quisinostat -0.007 | tipifarnib -0.023 | [4] 0.015 | [5] 0.017 | [6] -0.038 | [7] -0.036 | vorinostat -0.088 | silmitasertib 0.045 | [8] -0.04 | entospletinib -0.006

PDCD4 (UniProt Q53EL6)
inactive: nilotinib 0.028 | [1] 0.019 | dasatinib -0.026 | [2] 0.035 | [3] 0.005 | quisinostat -0.044 | tipifarnib -0.008 | [4] -0.01 | [5] 0.009 | [6] -0.013 | [7] 0.004 | silmitasertib 0.014 | [8] 0.003 | entospletinib 0.038
active: vorinostat -0.378

PAXIP1 (UniProt Q6ZW49)
inactive: nilotinib -0.041 | [1] -0.112 | dasatinib 0.044 | [2] 0.018 | [3] -0.033 | quisinostat -0.068 | tipifarnib -0.166 | [4] 0.022 | [5] -0.075 | [6] -0.011 | [7] -0.001 | vorinostat -0.146 | silmitasertib 0.027 | [8] -0.089 | entospletinib -0.038

PDLIM7 (UniProt Q9NR12)
inactive: nilotinib 0.022 | [1] -0.022 | dasatinib 0.013 | [2] -0.01 | [3] -0.005 | quisinostat -0.004 | tipifarnib -0.009 | [4] -0.008 | [5] -0.001 | [6] -0.012 | [7] -0.01 | vorinostat 0.075 | silmitasertib 0.001 | [8] 0.016 | entospletinib 0.003

PBXIP1 (UniProt Q96AQ6)
inactive: nilotinib 0.012 | [1] -0.085 | dasatinib -0.021 | [2] 0.021 | [3] -0.009 | quisinostat 0.005 | tipifarnib 0.026 | [4] 0.003 | [5] 0.019 | [6] -0.028 | [7] 0.01 | vorinostat 0.07 | silmitasertib -0.064 | [8] 0.01 | entospletinib 0

PCGF6 (UniProt Q9BYE7)
inactive: nilotinib 0.038 | [1] -0.016 | dasatinib 0.028 | [2] -0.08 | [3] 0.037 | quisinostat 0.052 | tipifarnib 0.053 | [4] 0.174 | [5] 0.015 | [6] 0.147 | [7] 0.069 | vorinostat -0.288 | silmitasertib 0.028 | [8] -0.045

PECAM1 (UniProt P16284)
inactive: nilotinib 0.021 | [1] -0.03 | dasatinib -0.055 | [2] 0.03 | [3] -0.023 | quisinostat -0.045 | tipifarnib -0.053 | [4] 0.008 | [5] -0.013 | [6] -0.001 | [7] -0.031 | vorinostat 0.117 | silmitasertib -0.03 | [8] 0.068 | entospletinib -0.069

Two records drawn at random from the list so far, as already listed:
PAXIP1 (UniProt Q6ZW49)
inactive: nilotinib -0.041 | [1] -0.112 | dasatinib 0.044 | [2] 0.018 | [3] -0.033 | quisinostat -0.068 | tipifarnib -0.166 | [4] 0.022 | [5] -0.075 | [6] -0.011 | [7] -0.001 | vorinostat -0.146 | silmitasertib 0.027 | [8] -0.089 | entospletinib -0.038

PCGF6 (UniProt Q9BYE7)
inactive: nilotinib 0.038 | [1] -0.016 | dasatinib 0.028 | [2] -0.08 | [3] 0.037 | quisinostat 0.052 | tipifarnib 0.053 | [4] 0.174 | [5] 0.015 | [6] 0.147 | [7] 0.069 | vorinostat -0.288 | silmitasertib 0.028 | [8] -0.045

(next part)

PEX11B (UniProt O96011)
inactive: nilotinib -0.098 | [1] 0.026 | dasatinib 0.09 | [2] 0.049 | [3] -0.017 | quisinostat -0.02 | tipifarnib -0.011 | [4] 0.031 | [5] -0.006 | [6] -0.009 | [7] -0.016 | vorinostat 0.066 | silmitasertib 0.014 | [8] -0.031 | entospletinib 0.043

PBK (UniProt Q96KB5)
active: vorinostat -0.269
inactive: nilotinib -0.01 | [1] 0.006 | dasatinib -0.035 | [2] 0.017 | [3] 0.017 | quisinostat -0.02 | tipifarnib 0.033 | [4] 0.032 | [5] 0.017 | [6] 0.024 | [7] -0.029 | silmitasertib 0.013 | [8] -0.021 | entospletinib 0.035

PDCD11 (UniProt Q14690)
inactive: nilotinib -0.049 | [1] -0.04 | dasatinib -0.099 | [2] -0.043 | [3] -0.035 | quisinostat -0.092 | tipifarnib -0.04 | [4] 0.039 | [5] 0.029 | [6] -0.065 | [7] 0.064 | vorinostat -0.032 | silmitasertib 0.003 | [8] 0.058 | entospletinib 0.029

PEX2 (UniProt P28328)
inactive: nilotinib 0.059 | [1] -0.158 | dasatinib -0.078 | [2] -0.041 | [3] 0.039 | quisinostat 0.054 | tipifarnib 0.048 | [4] 0.143 | [5] 0.116 | [6] -0.106 | [7] -0.055 | vorinostat -0.25 | silmitasertib 0.042 | [8] 0.043

PEX16 isoform 2 (UniProt Q9Y5Y5)
inactive: nilotinib -0.032 | [1] 0.084 | dasatinib -0.083 | [2] 0.024 | [3] 0.025 | quisinostat -0.014 | tipifarnib -0.092 | [4] 0.117 | [5] 0.022 | [6] -0.117 | [7] -0.268 | vorinostat 0.101 | silmitasertib -0.015 | [8] 0.077 | entospletinib -0.028

PEX19 (UniProt P40855)
inactive: nilotinib 0 | [1] 0 | dasatinib -0.027 | [2] 0.049 | [3] -0.01 | quisinostat -0.076 | tipifarnib 0.018 | [4] -0.008 | [5] -0.006 | [6] -0.037 | [7] 0.02 | vorinostat 0.152 | silmitasertib 0.013 | [8] 0.033 | entospletinib -0.007

PDCD6 (UniProt O75340)
inactive: nilotinib 0.011 | [1] 0.018 | dasatinib 0.002 | [2] -0.002 | [3] -0.001 | quisinostat 0.033 | tipifarnib -0.034 | [4] -0.023 | [5] -0.049 | [6] -0.023 | [7] -0.118 | vorinostat 0.114 | silmitasertib -0.014 | [8] 0.002 | entospletinib 0.026

PCBP1 (UniProt Q15365)
inactive: nilotinib 0.009 | [1] -0.048 | dasatinib -0.005 | [2] -0.24 | [3] -0.021 | quisinostat 0.008 | tipifarnib -0.216 | [4] -0.017 | [5] -0.013 | [6] 0.006 | [7] 0.01 | vorinostat -0.123 | silmitasertib -0.029 | [8] 0.01 | entospletinib 0.001

PDCL (UniProt Q13371)
inactive: nilotinib -0.04 | [1] 0.03 | dasatinib 0.009 | [2] 0.057 | [3] 0.001 | quisinostat -0.034 | tipifarnib -0.031 | [4] 0.025 | [5] -0.002 | [6] 0.026 | [7] -0.01 | vorinostat -0.083 | silmitasertib 0.003 | [8] -0.009 | entospletinib -0.004

PARN (UniProt O95453)
inactive: nilotinib 0.012 | [1] -0.03 | dasatinib 0.01 | [2] -0.016 | [3] 0.015 | quisinostat -0.024 | tipifarnib -0.052 | [4] -0.011 | [5] 0.032 | [6] -0.007 | [7] -0.041 | vorinostat 0.006 | silmitasertib -0.002 | [8] -0.002 | entospletinib -0.016

PFKM isoform 3 (UniProt P08237)
inactive: nilotinib 0 | [1] 0.005 | dasatinib 0.012 | [2] 0.006 | [3] 0.025 | quisinostat -0.039 | tipifarnib -0.011 | [4] 0.013 | [5] -0.003 | [6] 0.012 | [7] 0.004 | vorinostat -0.06 | silmitasertib -0.075 | [8] -0.006 | entospletinib 0.021

PCYT1B (UniProt Q9Y5K3)
inactive: nilotinib -0.079 | [1] -0.003 | dasatinib 0 | [2] 0.022 | [3] -0.026 | quisinostat 0.039 | tipifarnib 0.047 | [4] -0.023 | [5] -0.008 | [6] 0.054 | [7] -0.03 | vorinostat 0.064 | silmitasertib -0.062 | [8] -0.027 | entospletinib 0.002

PCNP (UniProt Q8WW12)
inactive: nilotinib -0.021 | [1] -0.024 | dasatinib -0.015 | [2] 0.004 | [3] -0.034 | quisinostat 0.017 | tipifarnib 0.002 | [4] -0.074 | [5] -0.022 | [6] -0.017 | [7] 0.058 | vorinostat 0.153 | silmitasertib -0.042 | [8] 0.007 | entospletinib 0.011

From the supplement of paper PMC10849652
